These results are taken from the supplement of paper PMC12067093, “Discovery and optimisation of a covalent ligand for TRIM25 and its application to targeted protein ubiquitination” (Chemical Science, 2025).

Chains of the proteins cited; added tags and fusions are not shown. Lines headed by an entry give the natural chain unless they say otherwise; changes in a name come on top.
UniProt Q16186: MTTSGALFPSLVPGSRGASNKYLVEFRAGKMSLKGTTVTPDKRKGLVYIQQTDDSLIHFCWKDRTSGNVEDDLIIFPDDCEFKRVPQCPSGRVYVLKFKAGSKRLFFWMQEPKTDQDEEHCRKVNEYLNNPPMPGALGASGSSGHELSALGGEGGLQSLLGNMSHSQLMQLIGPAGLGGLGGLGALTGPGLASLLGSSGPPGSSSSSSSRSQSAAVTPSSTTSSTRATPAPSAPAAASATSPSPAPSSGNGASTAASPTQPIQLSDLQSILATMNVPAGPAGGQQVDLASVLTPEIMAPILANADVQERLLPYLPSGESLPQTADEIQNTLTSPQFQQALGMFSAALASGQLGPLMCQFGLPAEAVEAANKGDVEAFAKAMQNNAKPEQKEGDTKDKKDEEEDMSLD
UniProt P33121: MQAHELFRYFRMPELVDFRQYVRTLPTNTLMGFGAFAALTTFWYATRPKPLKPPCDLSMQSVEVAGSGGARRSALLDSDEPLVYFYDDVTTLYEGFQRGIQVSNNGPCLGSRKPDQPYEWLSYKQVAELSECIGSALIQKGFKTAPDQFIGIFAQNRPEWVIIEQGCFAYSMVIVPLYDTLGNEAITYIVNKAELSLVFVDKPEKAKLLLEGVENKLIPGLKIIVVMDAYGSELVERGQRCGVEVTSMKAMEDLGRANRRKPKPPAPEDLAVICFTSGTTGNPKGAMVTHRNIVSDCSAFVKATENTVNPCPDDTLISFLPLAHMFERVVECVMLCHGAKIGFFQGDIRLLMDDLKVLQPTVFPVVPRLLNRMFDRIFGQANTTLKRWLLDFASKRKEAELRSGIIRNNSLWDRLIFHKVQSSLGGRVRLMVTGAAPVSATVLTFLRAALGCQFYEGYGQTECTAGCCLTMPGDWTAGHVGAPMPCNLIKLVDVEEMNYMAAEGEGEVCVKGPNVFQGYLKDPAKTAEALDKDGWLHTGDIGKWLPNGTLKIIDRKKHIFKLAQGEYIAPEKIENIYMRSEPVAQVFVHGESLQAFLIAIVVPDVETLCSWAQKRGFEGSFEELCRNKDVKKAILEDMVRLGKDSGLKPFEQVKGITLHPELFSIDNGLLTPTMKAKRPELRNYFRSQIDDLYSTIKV
UniProt Q9NZ32, whole entry, looked up: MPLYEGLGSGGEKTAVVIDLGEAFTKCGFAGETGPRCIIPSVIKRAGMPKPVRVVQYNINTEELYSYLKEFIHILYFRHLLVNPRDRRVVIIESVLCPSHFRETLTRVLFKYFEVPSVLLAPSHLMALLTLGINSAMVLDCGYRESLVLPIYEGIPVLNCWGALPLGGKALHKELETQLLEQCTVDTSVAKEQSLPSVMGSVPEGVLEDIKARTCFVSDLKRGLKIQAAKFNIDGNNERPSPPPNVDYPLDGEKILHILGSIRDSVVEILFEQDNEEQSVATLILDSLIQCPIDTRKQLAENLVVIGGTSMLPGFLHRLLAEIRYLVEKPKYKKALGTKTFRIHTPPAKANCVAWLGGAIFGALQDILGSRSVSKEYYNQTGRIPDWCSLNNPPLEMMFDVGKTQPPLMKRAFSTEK
UniProt O14672: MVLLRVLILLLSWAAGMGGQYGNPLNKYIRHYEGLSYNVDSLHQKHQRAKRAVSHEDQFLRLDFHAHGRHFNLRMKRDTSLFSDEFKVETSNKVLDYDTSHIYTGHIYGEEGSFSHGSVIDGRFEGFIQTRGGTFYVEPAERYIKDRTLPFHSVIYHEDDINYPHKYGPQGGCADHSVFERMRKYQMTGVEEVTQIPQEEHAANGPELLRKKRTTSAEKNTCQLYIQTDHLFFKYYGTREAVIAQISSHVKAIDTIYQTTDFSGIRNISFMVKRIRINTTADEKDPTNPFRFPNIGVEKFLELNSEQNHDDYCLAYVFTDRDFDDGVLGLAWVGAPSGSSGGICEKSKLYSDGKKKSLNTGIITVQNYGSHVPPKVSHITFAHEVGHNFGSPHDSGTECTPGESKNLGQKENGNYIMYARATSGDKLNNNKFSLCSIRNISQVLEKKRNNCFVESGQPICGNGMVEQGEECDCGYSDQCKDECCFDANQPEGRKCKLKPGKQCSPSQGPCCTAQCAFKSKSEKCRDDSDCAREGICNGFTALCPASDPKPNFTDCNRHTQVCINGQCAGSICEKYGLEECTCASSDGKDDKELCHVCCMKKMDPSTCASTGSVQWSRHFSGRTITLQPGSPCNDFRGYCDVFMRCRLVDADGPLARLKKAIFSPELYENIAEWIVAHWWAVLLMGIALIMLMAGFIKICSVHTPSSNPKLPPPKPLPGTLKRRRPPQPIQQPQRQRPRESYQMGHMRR
UniProt P55263: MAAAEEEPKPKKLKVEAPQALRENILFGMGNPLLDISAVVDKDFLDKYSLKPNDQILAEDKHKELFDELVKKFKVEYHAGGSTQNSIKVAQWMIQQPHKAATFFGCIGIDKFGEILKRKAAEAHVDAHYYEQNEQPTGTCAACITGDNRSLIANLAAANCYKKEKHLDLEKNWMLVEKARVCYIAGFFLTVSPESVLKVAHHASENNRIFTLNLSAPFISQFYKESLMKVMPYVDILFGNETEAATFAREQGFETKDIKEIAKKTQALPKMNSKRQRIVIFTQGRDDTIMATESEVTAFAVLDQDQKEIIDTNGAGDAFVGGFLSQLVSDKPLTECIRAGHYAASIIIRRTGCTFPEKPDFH
UniProt Q96SZ5, whole entry, looked up: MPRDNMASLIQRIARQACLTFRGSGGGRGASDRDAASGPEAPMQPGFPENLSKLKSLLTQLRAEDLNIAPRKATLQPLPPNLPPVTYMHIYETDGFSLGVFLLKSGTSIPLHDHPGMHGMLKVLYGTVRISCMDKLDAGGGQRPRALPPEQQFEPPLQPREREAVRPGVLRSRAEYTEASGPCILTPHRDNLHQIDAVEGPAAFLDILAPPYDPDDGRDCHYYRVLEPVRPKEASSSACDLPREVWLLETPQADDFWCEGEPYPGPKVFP
UniProt Q9Y4W6: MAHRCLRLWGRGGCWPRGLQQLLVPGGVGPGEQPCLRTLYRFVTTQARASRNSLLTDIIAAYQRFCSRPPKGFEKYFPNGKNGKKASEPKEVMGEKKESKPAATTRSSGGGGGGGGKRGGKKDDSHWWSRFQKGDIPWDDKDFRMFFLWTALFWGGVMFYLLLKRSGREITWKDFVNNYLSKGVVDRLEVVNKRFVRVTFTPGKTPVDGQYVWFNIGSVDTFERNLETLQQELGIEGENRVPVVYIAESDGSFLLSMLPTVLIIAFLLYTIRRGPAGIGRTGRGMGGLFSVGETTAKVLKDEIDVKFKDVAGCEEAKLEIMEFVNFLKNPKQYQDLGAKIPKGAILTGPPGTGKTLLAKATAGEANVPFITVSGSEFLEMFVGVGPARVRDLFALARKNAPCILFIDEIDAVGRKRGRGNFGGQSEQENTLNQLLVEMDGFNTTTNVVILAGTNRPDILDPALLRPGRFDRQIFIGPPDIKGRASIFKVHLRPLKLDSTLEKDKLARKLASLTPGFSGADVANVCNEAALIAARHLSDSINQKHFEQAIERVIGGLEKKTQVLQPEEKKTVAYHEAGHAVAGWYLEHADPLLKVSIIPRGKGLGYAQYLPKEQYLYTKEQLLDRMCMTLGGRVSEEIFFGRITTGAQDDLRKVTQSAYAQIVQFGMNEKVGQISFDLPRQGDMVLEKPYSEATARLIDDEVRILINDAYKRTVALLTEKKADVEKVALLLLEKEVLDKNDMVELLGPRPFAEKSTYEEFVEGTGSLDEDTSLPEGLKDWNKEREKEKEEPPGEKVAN
UniProt Q9H2P0: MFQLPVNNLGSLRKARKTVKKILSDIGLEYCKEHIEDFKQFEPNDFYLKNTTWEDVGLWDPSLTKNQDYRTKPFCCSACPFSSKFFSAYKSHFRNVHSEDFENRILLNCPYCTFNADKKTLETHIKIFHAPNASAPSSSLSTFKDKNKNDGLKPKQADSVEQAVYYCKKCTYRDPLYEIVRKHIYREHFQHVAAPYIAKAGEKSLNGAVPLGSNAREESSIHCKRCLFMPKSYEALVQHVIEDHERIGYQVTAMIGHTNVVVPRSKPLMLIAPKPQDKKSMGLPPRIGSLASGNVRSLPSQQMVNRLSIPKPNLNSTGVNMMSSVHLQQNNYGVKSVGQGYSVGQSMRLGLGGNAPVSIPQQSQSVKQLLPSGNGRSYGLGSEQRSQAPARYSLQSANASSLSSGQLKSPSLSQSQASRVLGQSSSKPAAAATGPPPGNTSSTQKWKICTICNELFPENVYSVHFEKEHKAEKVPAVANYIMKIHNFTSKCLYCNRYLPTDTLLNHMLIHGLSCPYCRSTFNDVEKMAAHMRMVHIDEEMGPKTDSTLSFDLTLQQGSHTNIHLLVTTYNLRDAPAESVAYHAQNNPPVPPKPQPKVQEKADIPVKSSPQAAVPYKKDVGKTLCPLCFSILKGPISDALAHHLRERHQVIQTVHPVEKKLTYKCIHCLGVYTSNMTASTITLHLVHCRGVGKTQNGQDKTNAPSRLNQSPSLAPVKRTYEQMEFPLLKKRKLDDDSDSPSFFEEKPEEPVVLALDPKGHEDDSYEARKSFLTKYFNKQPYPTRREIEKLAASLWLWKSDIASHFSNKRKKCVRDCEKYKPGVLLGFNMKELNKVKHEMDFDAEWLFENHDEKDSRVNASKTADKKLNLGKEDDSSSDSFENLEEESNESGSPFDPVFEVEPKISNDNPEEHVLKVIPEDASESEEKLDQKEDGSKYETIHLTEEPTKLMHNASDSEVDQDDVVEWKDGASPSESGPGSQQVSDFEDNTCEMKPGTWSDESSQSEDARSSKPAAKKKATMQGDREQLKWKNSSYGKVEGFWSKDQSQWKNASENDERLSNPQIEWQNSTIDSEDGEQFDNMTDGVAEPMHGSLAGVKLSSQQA
UniProt P30566: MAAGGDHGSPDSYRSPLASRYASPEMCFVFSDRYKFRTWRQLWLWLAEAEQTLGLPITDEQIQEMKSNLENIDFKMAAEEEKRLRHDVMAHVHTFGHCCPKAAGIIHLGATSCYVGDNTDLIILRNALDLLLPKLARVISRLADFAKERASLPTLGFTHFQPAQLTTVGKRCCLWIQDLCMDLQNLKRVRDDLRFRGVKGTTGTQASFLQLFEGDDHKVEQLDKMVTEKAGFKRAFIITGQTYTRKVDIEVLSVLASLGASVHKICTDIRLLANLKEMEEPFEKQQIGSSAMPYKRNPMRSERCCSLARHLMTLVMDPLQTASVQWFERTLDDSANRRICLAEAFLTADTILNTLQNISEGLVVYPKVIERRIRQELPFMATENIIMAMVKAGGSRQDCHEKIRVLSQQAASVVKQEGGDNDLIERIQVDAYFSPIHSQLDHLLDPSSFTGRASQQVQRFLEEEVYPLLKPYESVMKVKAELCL
UniProt P11766: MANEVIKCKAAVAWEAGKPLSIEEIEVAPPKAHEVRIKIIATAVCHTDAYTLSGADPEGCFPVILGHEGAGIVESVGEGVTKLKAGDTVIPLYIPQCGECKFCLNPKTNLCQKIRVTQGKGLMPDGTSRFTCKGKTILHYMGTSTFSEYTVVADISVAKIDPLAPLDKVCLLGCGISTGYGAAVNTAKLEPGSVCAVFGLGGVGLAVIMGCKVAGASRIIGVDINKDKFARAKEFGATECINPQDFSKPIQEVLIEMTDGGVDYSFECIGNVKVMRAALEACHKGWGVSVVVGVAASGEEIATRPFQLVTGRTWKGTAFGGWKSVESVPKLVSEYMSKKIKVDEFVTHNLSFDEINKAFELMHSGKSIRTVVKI
UniProt O43707, whole entry, looked up: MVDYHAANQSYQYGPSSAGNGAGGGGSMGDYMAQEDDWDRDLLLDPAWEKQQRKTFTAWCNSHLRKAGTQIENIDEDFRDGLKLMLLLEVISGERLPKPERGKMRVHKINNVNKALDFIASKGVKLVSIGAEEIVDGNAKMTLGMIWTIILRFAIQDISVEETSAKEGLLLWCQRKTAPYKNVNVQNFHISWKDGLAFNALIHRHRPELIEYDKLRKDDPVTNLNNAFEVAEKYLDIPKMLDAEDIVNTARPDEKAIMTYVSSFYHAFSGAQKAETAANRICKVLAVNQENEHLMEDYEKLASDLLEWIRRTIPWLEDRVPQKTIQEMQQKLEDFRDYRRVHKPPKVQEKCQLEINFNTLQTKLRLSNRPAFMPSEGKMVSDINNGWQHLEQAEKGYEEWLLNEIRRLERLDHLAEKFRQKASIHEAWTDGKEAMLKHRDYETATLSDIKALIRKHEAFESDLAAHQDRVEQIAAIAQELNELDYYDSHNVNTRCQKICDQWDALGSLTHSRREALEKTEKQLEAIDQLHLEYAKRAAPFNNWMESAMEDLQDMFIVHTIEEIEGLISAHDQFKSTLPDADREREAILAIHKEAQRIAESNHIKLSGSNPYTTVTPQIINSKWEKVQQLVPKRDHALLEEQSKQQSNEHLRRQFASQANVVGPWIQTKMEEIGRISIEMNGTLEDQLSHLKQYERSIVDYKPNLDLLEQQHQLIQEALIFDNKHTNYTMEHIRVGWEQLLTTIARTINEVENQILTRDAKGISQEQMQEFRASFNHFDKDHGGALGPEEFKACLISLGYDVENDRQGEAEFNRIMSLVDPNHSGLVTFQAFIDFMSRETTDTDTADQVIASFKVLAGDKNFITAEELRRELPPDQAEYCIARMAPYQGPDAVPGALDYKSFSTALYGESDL

Some of the results follow.

Compound in the test: CC1Cc2ccccc2N1C(=O)C1CCCN(C1)C(=O)CCl (mixture of isomers) [TRIM25 ligand 11 (diastereomer mixture)]
As to the kind of experiment: probe-labelled cysteine peptide fold change vs DMSO (competition) (log2 fold change); higher = less target engagement (more negative = stronger competition). Conditions: THP-1, incubation time: 4 h.
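Also: competitive chemoproteomic profiling in live THP-1 cells with an iodoacetamide desthiobiotin (IA-DTB) probe, comparing probe-labelled peptide intensities in compound-treated cells against DMSO-treated controls.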

In the case of “ACTN1_P12814_476_CQKICDQWDNLGALTQKRR (UniProt P12814)”, the “probe-labelled cysteine peptide fold change” value runs as follows: (10 µM) 0.0927; (50 µM) 0.274.

For “ACTR3_P61158_394_YAVWFGGSMLASTPEFYQVCHTK (UniProt P61158)”, the “probe-labelled cysteine peptide fold change” value reads like this: (10 µM) 0.0158; (50 µM) 0.15.

On to “ADRM1_Q16186_88_VPQCPSGR (UniProt Q16186)”, for which the “probe-labelled cysteine peptide fold change” value was -0.171 (10 µM) and -0.0547 (50 µM).

As to “ACSL1_P33121_274_RKPKPPAPEDLAVICFTSGTTGNPK (UniProt P33121)”, the “probe-labelled cysteine peptide fold change” value reads like this: (10 µM) -0.0396; (50 µM) 0.0816.

“ADRM1_Q16186_88_RVPQCPSGR (UniProt Q16186)”: the “probe-labelled cysteine peptide fold change” value turned out to be 0.0354 (10 µM) and 0.0908 (50 µM).

Take “ACTR10_Q9NZ32_215_TCFVSDLKR (UniProt Q9NZ32)”: the “probe-labelled cysteine peptide fold change” value reads like this: (10 µM) -0.113; (50 µM) 0.00991.

For “ADAM10_O14672_484_DECCFDANQPEGR (UniProt O14672)”, the “probe-labelled cysteine peptide fold change” value is 0.0781 (10 µM) and -0.081 (50 µM).

As to “ADK_P55263_160_SLIANLAAANCYKK (UniProt P55263)”, the “probe-labelled cysteine peptide fold change” value is -0.669 (10 µM) and -0.408 (50 µM).

For the target “ACSF2_Q96CM8_254_QHLDQLQYNQQFLSCHDPINIQFTSGTTGSPK (UniProt Q96CM8)”, the “probe-labelled cysteine peptide fold change” value is 0.0011 (10 µM) and -0.131 (50 µM).

In the case of “ADAR_P55265_773_WFPAVCAHSK (UniProt P55265)”, the “probe-labelled cysteine peptide fold change” value by setting is: (10 µM) -0.212; (50 µM) -0.19.

Regarding “ADO_Q96SZ5_239_EASSSACDLPR (UniProt Q96SZ5)”, the “probe-labelled cysteine peptide fold change” value was -0.0846 (10 µM) and -0.257 (50 µM).

As to “AFG3L2_Q9Y4W6_402_NAPCILFIDEIDAVGR (UniProt Q9Y4W6)”, the “probe-labelled cysteine peptide fold change” value runs as follows: (10 µM) 0.16; (50 µM) 0.129.

Turning to ADK_P55263_336_PLTECIR (UniProt P55263), the “probe-labelled cysteine peptide fold change” value by setting is: (10 µM) 0.109; (50 µM) 0.399.

“ADSS_P30520_18_AFAETYPAASSLPNGDCGRPR (UniProt P30520)”: the “probe-labelled cysteine peptide fold change” value reads like this: (10 µM) -0.311; (50 µM) -0.0817.

With “ACTR2_P61160_20_CGYAGSNFPEHIFPALVGRPIIR (UniProt P61160)”, the “probe-labelled cysteine peptide fold change” value runs as follows: (10 µM) -0.0468; (50 µM) -0.017.

Take “ADNP_Q9H2P0_449_ICTICNELFPENVYSVHFEK (UniProt Q9H2P0)”: the “probe-labelled cysteine peptide fold change” value (10 µM) was -0.16 and the “probe-labelled cysteine peptide fold change” value (50 µM) was -0.0416.

With “ADGRL3_Q9HAR2_36_RELSCESYPIELR (UniProt Q9HAR2)”, the “probe-labelled cysteine peptide fold change” value is 0.0299 (10 µM) and -0.0901 (50 µM).

For the target “ADSL_P30566_180_CCLWIQDLCMDLQNLK (UniProt P30566)”, the “probe-labelled cysteine peptide fold change” value was 0.0708 (10 µM) and 0.312 (50 µM).

On to “ACSL1_P33121_274_KPKPPAPEDLAVICFTSGTTGNPK (UniProt P33121)”, for which the “probe-labelled cysteine peptide fold change” value by setting is: (10 µM) -0.0894; (50 µM) -0.0513.

For the target “AFTPH_Q6ULP2_583_DSCSWAAFGDQQATESHHR (UniProt Q6ULP2)”, the “probe-labelled cysteine peptide fold change” value (10 µM) stood at 0.0958 and the “probe-labelled cysteine peptide fold change” value (50 µM) was -0.037.

As to “ACTR3_P61158_12_LPACVVDCGTGYTK (UniProt P61158)”, the “probe-labelled cysteine peptide fold change” value (10 µM) was -0.0727 and the “probe-labelled cysteine peptide fold change” value (50 µM) is -0.0621.

“ACSF3_Q4G176_86_LCGCVGGDLREER (UniProt Q4G176)”: the “probe-labelled cysteine peptide fold change” value (10 µM) amounted to 0.162 and the “probe-labelled cysteine peptide fold change” value (50 µM) is 0.259.

Consider “AGL_P35573_212_EWNVICITDVVYNHTAANSK (UniProt P35573)”, for which the “probe-labelled cysteine peptide fold change” value (10 µM) was determined as 0.0724 and the “probe-labelled cysteine peptide fold change” value (50 µM) stood at 0.114.

Consider “ACSL3_O95573_503+504_VGAPLVCCEIK (UniProt O95573)”, for which the “probe-labelled cysteine peptide fold change” value (10 µM) was 0.00302 and the “probe-labelled cysteine peptide fold change” value (50 µM) is 0.118.

For the target “ACTR10_Q9NZ32_27_CGFAGETGPR (UniProt Q9NZ32)”, the “probe-labelled cysteine peptide fold change” value (10 µM) is -0.0493 and the “probe-labelled cysteine peptide fold change” value (50 µM) was 0.118.

As for “ADAM10_O14672_222_NTCQLYIQTDHLFFK (UniProt O14672)”, the “probe-labelled cysteine peptide fold change” value is 0.1 (10 µM) and 0.164 (50 µM).

“ADH5_P11766_97_AGDTVIPLYIPQCGECK (UniProt P11766)”: the “probe-labelled cysteine peptide fold change” value reads like this: (10 µM) -0.0807; (50 µM) -0.0814.

Turning to “ACSL4_O60488_420_GYDAPLCNLLLFKK (UniProt O60488)”, the “probe-labelled cysteine peptide fold change” value by setting is: (10 µM) -0.314; (50 µM) -0.314.

For the target “ADNP_Q9H2P0_223_EESSIHCK (UniProt Q9H2P0)”, the “probe-labelled cysteine peptide fold change” value stood at 0.196 (10 µM) and 0.129 (50 µM).

With “ACTR8_Q9H981_179_WTNTSHHPEYLVGEEALYVNPLDCYNIHWPIRR (UniProt Q9H981)”, the “probe-labelled cysteine peptide fold change” value was 0.0339 (10 µM) and -0.000448 (50 µM).

Take “ADA_P00813_262_QENMHFEICPWSSYLTGAWKPDTEHAVIR (UniProt P00813)”: the “probe-labelled cysteine peptide fold change” value (10 µM) is -0.00691 and the “probe-labelled cysteine peptide fold change” value (50 µM) was -0.138.

With “ADAR_P55265_519_NPISGLLEYAQFASQTCEFNMIEQSGPPHEPR (UniProt P55265)”, the “probe-labelled cysteine peptide fold change” value reads like this: (10 µM) -0.216; (50 µM) -0.0215.

Turning to “ADSL_P30566_99_LRHDVMAHVHTFGHCCPK (UniProt P30566)”, the “probe-labelled cysteine peptide fold change” value (10 µM) was -0.137 and the “probe-labelled cysteine peptide fold change” value (50 µM) worked out at 0.0251.

Take “ADD2_P35612_177_GVSCSEVTASSLIK (UniProt P35612)”: the “probe-labelled cysteine peptide fold change” value runs as follows: (10 µM) -0.0274; (50 µM) -0.0547.

On to “ACTR6_Q9GZN1_210_EDVCYVSQDFYR (UniProt Q9GZN1)”, for which the “probe-labelled cysteine peptide fold change” value reads like this: (10 µM) 0.125; (50 µM) 0.0682.

Take “ACTN4_O43707_879_RELPPDQAEYCIAR (UniProt O43707)”: the “probe-labelled cysteine peptide fold change” value was found to be 0.0491 (10 µM) and 0.0892 (50 µM).

In the case of “ACSL4_O60488_494_VGAPLICCEIK (UniProt O60488)”, the “probe-labelled cysteine peptide fold change” value runs as follows: (10 µM) 0.0302; (50 µM) 0.00888.

For the target “ADAM10_O14672_435_FSLCSIR (UniProt O14672)”, the “probe-labelled cysteine peptide fold change” value by setting is: (10 µM) -0.00291; (50 µM) 0.0728.

On to “AFG3L2_Q9Y4W6_313_DVAGCEEAKLEIMEFVNFLK (UniProt Q9Y4W6)”, for which the “probe-labelled cysteine peptide fold change” value is, setting by setting: (10 µM) -0.133; (50 µM) -0.232.

On to “ACSL4_O60488_170_AEWMIAAQTCFK (UniProt O60488)”, for which the “probe-labelled cysteine peptide fold change” value turned out to be 0.155 (10 µM) and 0.303 (50 µM).

Turning to “ACTN4_O43707_499_ICDQWDALGSLTHSRR (UniProt O43707)”, the “probe-labelled cysteine peptide fold change” value was 0.0836 (10 µM) and -0.0109 (50 µM).

Turning to ADH5_P11766_103_FCLNPK (UniProt P11766), the “probe-labelled cysteine peptide fold change” value by setting is: (10 µM) -0.0585; (50 µM) -0.0326.
